Consider one substance from paper PMC10620125.

Sequences of proteins named here, by UniProt entry; tags and fusion partners are left off.
UniProt P01106: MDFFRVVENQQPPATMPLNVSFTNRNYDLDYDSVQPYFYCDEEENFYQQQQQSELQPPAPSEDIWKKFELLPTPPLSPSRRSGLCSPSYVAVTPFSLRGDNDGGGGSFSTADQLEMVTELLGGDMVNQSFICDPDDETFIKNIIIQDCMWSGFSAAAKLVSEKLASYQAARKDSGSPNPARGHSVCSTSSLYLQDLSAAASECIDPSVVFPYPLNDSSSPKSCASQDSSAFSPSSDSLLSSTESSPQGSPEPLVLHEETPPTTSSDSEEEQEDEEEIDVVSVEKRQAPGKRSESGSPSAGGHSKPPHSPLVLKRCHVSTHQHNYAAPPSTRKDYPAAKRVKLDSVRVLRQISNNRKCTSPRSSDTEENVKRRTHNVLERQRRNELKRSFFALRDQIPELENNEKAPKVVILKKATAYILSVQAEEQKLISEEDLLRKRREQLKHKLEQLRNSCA
UniProt Q96KQ7: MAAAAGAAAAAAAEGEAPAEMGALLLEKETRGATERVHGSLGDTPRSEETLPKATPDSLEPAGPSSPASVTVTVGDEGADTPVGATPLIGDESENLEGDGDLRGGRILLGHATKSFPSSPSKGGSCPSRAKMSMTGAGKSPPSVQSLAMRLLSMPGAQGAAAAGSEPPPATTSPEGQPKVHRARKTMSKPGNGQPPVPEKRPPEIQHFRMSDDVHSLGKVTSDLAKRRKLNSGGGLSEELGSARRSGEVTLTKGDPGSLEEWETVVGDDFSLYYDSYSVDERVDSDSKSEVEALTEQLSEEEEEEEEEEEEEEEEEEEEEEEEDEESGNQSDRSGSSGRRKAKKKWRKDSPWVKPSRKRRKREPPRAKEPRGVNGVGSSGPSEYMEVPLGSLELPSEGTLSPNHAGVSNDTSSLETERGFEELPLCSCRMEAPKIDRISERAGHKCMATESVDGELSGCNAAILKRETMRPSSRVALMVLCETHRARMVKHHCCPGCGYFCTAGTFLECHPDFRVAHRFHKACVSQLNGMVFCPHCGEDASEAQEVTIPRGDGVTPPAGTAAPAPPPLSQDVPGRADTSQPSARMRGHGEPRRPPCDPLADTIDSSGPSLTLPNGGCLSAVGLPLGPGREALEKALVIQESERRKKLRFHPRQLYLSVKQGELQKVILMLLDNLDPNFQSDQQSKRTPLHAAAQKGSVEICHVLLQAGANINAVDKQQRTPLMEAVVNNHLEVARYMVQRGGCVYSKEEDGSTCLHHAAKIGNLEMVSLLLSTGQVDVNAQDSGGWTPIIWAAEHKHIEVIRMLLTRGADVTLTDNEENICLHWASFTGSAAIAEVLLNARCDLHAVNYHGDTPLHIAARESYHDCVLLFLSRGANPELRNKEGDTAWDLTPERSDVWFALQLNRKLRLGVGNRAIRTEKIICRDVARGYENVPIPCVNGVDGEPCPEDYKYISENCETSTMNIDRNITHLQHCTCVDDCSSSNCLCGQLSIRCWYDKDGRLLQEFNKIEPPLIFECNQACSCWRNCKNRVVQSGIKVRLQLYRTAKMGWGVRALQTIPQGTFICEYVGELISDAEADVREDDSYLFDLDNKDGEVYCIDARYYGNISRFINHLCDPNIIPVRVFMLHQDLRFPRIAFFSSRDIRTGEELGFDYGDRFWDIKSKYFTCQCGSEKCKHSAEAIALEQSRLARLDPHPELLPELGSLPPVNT

Results are given in words; binding and its absence hold for the method and conditions named. In cells and extracts the contact can be indirect. Some entries that bind do so weakly or less than the wild type.

The assay concerns the target c‐Myc (human (endogenous in BEL7402)) (UniProt P01106). Put plainly: proximity ligation; Duolink PLA mouse/rabbit kit on BEL7402 cells fixed with 4% paraformaldehyde and permeabilised with 0.1% Triton-X; primary antibodies for c-Myc and G9a overnight at 4 °C; single antibody controls; also G9a-depleted (shEHMT2) against non-targeting control cells, with reduced signal.

“Histone‐lysine N‐methyltransferase EHMT2 (G9a) (from UniProt Q96KQ7 1-1210)”: the binding result is “binds”.
